Measured values published in PMC4980872.
These are yes or no findings as the source states them, for the method shown. In cells and extracts the contact can be indirect. Some entries that bind do so weakly or less than the wild type.

Sequences of proteins named here, by UniProt entry; tags and fusion partners are left off.
UniProt O75376: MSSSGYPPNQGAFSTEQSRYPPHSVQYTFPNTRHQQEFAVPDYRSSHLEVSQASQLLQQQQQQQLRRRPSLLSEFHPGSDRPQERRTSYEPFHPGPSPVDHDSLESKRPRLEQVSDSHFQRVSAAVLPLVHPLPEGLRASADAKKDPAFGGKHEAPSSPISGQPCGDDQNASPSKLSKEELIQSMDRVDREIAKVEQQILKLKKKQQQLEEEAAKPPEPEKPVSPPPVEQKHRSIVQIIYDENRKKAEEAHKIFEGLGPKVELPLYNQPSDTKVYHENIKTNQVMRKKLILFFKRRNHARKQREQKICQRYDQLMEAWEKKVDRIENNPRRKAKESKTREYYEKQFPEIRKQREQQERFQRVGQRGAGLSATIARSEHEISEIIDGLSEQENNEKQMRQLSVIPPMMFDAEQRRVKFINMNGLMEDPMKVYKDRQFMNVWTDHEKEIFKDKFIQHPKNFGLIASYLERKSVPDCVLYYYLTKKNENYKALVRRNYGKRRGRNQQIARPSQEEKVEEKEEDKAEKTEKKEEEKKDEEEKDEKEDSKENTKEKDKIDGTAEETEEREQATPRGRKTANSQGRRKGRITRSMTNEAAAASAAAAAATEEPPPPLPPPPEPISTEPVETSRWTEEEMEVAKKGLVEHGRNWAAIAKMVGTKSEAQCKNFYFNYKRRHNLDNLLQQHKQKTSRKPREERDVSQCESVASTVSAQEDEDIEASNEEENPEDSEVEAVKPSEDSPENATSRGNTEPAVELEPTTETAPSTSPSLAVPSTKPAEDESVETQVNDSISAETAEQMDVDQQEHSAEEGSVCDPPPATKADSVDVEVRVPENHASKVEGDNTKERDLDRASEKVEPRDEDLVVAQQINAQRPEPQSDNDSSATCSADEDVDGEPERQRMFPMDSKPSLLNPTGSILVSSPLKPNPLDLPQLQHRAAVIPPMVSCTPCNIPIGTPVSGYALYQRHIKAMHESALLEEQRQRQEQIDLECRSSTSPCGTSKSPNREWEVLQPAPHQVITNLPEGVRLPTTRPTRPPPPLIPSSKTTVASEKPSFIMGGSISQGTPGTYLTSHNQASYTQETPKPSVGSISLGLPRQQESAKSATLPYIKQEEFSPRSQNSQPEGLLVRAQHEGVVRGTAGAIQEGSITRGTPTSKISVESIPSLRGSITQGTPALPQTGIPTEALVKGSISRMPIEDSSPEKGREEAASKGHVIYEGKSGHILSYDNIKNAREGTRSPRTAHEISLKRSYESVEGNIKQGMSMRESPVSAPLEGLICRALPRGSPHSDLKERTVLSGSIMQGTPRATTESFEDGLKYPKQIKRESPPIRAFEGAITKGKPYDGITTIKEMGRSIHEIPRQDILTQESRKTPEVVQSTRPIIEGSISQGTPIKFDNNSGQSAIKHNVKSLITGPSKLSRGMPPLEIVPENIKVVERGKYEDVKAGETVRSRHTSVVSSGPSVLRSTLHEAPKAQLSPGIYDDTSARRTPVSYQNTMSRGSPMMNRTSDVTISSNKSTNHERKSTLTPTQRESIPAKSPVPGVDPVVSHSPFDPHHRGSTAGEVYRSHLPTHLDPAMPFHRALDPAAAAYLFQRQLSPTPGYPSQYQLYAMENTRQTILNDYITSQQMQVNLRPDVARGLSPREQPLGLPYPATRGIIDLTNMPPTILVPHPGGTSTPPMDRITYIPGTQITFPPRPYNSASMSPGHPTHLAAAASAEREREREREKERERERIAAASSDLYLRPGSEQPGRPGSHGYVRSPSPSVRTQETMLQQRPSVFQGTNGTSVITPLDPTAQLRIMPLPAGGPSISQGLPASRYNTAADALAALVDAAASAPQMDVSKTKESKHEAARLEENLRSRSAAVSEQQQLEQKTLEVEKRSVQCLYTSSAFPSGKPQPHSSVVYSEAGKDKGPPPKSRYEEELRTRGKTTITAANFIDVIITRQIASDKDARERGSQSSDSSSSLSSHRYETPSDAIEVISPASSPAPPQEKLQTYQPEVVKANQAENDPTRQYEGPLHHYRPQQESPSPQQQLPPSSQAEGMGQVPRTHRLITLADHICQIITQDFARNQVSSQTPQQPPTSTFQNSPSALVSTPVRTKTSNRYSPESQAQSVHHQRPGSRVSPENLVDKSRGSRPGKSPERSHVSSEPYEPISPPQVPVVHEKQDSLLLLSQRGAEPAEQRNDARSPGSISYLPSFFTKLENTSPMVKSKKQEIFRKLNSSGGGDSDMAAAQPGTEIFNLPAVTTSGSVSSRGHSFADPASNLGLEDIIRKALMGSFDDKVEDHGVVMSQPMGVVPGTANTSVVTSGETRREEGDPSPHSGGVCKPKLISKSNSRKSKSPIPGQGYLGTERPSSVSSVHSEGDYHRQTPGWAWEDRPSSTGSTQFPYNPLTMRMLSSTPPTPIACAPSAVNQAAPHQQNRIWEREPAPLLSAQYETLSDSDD
UniProt Q9HCK8: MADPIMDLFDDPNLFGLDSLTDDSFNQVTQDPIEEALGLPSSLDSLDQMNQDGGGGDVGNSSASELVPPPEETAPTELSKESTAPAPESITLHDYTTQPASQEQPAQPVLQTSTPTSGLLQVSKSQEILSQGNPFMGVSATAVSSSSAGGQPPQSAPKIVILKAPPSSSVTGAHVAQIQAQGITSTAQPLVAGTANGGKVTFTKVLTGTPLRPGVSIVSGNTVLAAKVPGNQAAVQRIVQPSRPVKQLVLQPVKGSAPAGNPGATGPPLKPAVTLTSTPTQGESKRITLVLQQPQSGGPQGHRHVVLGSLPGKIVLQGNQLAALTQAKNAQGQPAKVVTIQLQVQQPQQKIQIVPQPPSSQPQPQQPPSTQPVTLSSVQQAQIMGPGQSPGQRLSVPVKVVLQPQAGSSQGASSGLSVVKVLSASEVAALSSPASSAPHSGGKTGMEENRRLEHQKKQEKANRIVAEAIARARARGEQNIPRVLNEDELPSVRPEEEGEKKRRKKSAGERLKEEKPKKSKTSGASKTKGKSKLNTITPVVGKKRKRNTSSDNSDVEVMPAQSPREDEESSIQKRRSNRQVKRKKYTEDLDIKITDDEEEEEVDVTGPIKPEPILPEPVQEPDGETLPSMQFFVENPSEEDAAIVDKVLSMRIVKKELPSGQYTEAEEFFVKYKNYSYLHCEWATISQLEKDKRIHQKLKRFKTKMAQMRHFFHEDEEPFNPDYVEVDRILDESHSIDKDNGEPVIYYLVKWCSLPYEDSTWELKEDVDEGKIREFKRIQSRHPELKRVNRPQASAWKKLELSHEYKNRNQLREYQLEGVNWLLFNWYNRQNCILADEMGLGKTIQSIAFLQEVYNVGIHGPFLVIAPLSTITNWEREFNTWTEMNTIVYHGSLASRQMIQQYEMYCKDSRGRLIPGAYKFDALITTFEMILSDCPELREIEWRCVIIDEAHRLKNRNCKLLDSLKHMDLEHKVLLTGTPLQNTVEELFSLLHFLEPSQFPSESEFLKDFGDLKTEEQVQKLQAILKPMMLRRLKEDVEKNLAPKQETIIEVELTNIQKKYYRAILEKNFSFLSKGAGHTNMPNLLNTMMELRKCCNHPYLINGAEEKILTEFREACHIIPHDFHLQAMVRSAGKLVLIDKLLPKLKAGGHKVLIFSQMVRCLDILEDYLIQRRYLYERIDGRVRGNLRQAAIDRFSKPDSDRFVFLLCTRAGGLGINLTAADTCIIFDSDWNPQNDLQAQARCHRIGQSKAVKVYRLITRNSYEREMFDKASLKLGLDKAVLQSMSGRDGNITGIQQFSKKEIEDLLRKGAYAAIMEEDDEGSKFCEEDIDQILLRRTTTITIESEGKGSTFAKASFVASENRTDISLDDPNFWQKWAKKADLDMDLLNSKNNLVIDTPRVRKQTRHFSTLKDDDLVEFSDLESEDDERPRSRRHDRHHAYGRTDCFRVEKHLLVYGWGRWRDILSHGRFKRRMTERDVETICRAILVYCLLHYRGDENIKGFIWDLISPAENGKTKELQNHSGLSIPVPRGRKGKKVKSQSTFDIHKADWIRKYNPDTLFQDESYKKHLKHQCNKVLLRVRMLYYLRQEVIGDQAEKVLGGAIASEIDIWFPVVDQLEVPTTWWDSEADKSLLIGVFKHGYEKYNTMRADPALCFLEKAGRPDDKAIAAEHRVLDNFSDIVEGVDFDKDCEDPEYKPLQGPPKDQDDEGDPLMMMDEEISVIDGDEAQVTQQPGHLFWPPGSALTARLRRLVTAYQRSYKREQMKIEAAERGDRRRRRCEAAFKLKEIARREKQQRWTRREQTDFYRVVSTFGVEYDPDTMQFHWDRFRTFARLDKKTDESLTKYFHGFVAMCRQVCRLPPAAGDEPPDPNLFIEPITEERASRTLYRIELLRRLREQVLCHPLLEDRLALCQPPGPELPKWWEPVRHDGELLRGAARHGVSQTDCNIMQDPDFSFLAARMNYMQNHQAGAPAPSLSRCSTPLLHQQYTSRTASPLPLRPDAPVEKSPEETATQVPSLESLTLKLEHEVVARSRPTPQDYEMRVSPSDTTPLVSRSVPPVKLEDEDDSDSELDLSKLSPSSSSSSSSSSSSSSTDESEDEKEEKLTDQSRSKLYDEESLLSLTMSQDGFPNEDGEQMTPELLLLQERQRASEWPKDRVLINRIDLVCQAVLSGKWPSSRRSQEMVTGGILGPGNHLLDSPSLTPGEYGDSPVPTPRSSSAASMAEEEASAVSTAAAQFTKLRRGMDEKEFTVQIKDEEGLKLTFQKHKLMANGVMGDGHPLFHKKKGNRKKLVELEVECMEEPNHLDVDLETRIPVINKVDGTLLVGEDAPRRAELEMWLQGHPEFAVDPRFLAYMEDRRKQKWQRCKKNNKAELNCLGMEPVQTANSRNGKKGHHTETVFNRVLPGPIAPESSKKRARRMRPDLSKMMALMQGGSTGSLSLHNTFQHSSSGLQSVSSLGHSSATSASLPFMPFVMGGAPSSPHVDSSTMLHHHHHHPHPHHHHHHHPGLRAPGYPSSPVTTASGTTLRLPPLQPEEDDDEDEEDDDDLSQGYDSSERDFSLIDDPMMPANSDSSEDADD

Target: NCOR1 (nuclear receptor corepressor 1) (UniProt O75376)
Assay: co-IP; co-immunoprecipitations in various CRC cell lines; bait and antibodies not stated

CHD8 (Chromodomain helicase DNA binding 8) protein (from UniProt Q9HCK8 1-2581)
binding: binds
